Data as given in paper PMC11596392, “Enhanced Antibacterial, Anti-Inflammatory, and Antibiofilm Activities of Tryptophan-Substituted Peptides Derived from Cecropin A-Melittin Hybrid Peptide BP100” (Molecules, 2024).
Where no end group is shown, it is not given here.

Test system: bacterial strains versus sheep red blood cells
Assay: Therapeutic index (cell selectivity), HC10/GM
Settings: 512 μM used for HC10 when no hemolysis at 256 μM

Compound | TI (therapeutic index, HC10/GM)
CC[C@H](C)[C@H](NC(=O)[C@H](CCCCN)NC(=O)[C@H](CCCCN)NC(=O)[C@H](Cc1c[nH]c2ccccc12)NC(=O)[C@H](CC(C)C)NC(=O)[C@H](CCCCN)NC(=O)[C@@H](N)CCCCN)C(=O)N[C@@H](CC(C)C)C(=O)N[C@@H](CCCCN)C(=O)N[C@@H](Cc1ccc(O)cc1)C(=O)N[C@@H](CC(C)C)C(N)=O [BP1] | 22.7
CC(C)C[C@H](NC(=O)[C@H](Cc1ccc(O)cc1)NC(=O)[C@H](CCCCN)NC(=O)[C@H](CC(C)C)NC(=O)[C@H](Cc1c[nH]c2ccccc12)NC(=O)[C@H](CCCCN)NC(=O)[C@H](CCCCN)NC(=O)[C@H](Cc1ccccc1)NC(=O)[C@H](CC(C)C)NC(=O)[C@H](CCCCN)NC(=O)[C@@H](N)CCCCN)C(N)=O [BP2] | 27.7
CC[C@H](C)[C@H](NC(=O)[C@H](CCCCN)NC(=O)[C@H](CCCCN)NC(=O)[C@H](Cc1ccccc1)NC(=O)[C@H](CC(C)C)NC(=O)[C@H](CCCCN)NC(=O)[C@@H](N)CCCCN)C(=O)N[C@@H](Cc1c[nH]c2ccccc12)C(=O)N[C@@H](CCCCN)C(=O)N[C@@H](Cc1ccc(O)cc1)C(=O)N[C@@H](CC(C)C)C(N)=O [BP3] | 18.8
CC[C@H](C)[C@H](NC(=O)[C@H](CCCCN)NC(=O)[C@H](CCCCN)NC(=O)[C@H](Cc1ccccc1)NC(=O)[C@H](CC(C)C)NC(=O)[C@H](CCCCN)NC(=O)[C@@H](N)CCCCN)C(=O)N[C@@H](CC(C)C)C(=O)N[C@@H](CCCCN)C(=O)N[C@@H](Cc1c[nH]c2ccccc12)C(=O)N[C@@H](CC(C)C)C(N)=O [BP4] | 27.4
CC[C@H](C)[C@H](NC(=O)[C@H](CCCCN)NC(=O)[C@H](CCCCN)NC(=O)[C@H](Cc1ccccc1)NC(=O)[C@H](CC(C)C)NC(=O)[C@H](CCCCN)NC(=O)[C@@H](N)CCCCN)C(=O)N[C@@H](CC(C)C)C(=O)N[C@@H](CCCCN)C(=O)N[C@@H](Cc1ccc(O)cc1)C(=O)N[C@@H](CC(C)C)C(N)=O [BP100] | 22.7
KKLFKKILKWW-NH2 [BP12] | 17.0
KKLFKKIWKWL-NH2 [BP11] | 49.2
KKLFKKWLKYW-NH2 [BP10] | 16.4
KKLFKKWWKWL-NH2 [BP16] | 15.7
KKLFKKWWKYL-NH2 [BP9] | 20.4
KKLWKKILKWL-NH2 [BP8] | 52.2
KKLWKKIWKYL-NH2 [BP7] | 53.3
KKLWKKIWKYW-NH2 [BP15] | 29.1
KKLWKKWLKYW-NH2 [BP14] | 34.4
KKWFKKILKWL-NH2 [BP6] | 64.0
KKWFKKWLKWL-NH2 [BP13] | 36.1
KKWWKKILKYL-NH2 [BP5] | 124.9
